From US4160016A, “Receptor fluorescent immunoassay” (Syva Company, priority 1977, dated 1979)
Several values for one entry are separate records, joined by “and”; a condition that tells them apart may be missing. Equal values may be shown once. At least one structure is not confirmed: it was looked up by name or label, or the drawing left a doubt.

Experiments:
Assay type in all cases: biochemical
[1] = system: Antisera 1; assay: Fluorescence assay for diphenylhydantoin with antisera 1 (Tables 3 and 4)
[2] = system: Antisera 2; assay: Fluorescence assay for diphenylhydantoin with antisera 2 (Table 3); settings: DPH 25 μl (3 mg/ml), antisera 2 25 μl, conjugate 25 μl
[3] = system: Antisera 3; assay: Fluorescence assay for diphenylhydantoin with antisera 3 (Table 3); settings: DPH 25 μl (3 mg/ml), antisera 3 25 μl, conjugate 25 μl
[4] = system: Antisera 4; assay: Fluorescence assay for diphenylhydantoin with antisera 4 (Table 3); settings: DPH 25 μl (3 mg/ml), antisera 4 25 μl, conjugate 25 μl

O=C1NC(=O)C(c2ccccc2)(c2ccccc2)N1 [DPH, diphenylhydantoin]
Fluorescent Signal ([1]; DPH 25 μl (3 mg/ml), antisera 1 25 μl, conjugate 25 μl): 745 arbitrary units and 736 arbitrary units
Fluorescent Signal ([1]; DPH conc. 0.03 mg/ml, antisera 1 5 μl, conjugate 25 μl (Table 4)): 725 arbitrary units and 728 arbitrary units
Fluorescent Signal ([1]; DPH conc. 0.3 mg/ml, antisera 1 5 μl, conjugate 25 μl (Table 4)): 788 arbitrary units and 792 arbitrary units
Fluorescent Signal ([1]; DPH conc. 3 mg/ml, antisera 1 5 μl, conjugate 25 μl (Table 4)): 904 arbitrary units and 885 arbitrary units
Fluorescent Signal [2]: 1025 arbitrary units and 1028 arbitrary units
Fluorescent Signal [3]: 1031 arbitrary units
Fluorescent Signal [4]: 922 arbitrary units and 900 arbitrary units
